Protein sequences, listed by entry. Tags and fused reporters are not part of them. Lines headed by an entry give the natural chain unless they say otherwise; changes in a name come on top.
UniProt P36142: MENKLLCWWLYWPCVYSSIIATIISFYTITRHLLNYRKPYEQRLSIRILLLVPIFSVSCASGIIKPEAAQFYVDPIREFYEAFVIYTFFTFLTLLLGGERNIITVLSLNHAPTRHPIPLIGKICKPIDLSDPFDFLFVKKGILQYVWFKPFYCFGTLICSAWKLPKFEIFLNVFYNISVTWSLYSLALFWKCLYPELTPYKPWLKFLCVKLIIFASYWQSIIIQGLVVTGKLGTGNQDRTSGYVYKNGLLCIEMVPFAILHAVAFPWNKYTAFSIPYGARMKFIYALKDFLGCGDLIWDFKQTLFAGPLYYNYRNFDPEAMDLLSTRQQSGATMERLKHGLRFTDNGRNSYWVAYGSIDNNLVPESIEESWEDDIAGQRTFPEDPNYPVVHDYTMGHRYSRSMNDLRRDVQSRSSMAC

According to PMC8176713:

Target: Hfl1-GFP with W371 mutated alone (S. cerevisiae) (UniProt P36142)
Test: co-IP; lysates of log phase yeast co-expressing Hfl1-GFP (TEF1 promoter) and 8 V5-Atg8 (own promoter) loaded on anti-GFP affinity resin, 4C, 2 h; lysis buffer 50 mM Tris-Cl, 150 mM NaCl, 10% glycerol, 1 mM EDTA, 1 mM PMSF, 0.2% NP-40, pH 7.4; immunoblot

binding: binds
B1: 8 V5-Atg8 (protein, UniProt P38182 1-117)
chain: MKSTFKSEYPFEKRKAESERIADRFKNRIPVICEKAEKSDIPEIDKRKYLVPADLTVGQFVYVIRKRIMLPPEKAIFIFVNDTLPPTAALMSAIYQEHKDKDGFLYVTYSGENTFGR

No constants are given. Whether binding was seen depends on the method and setting. In cells and extracts the contact can be indirect. A result given as binding can be weak or reduced; the word gives no strength. Sequences can lack the tags named with a protein.
